In all, about 400,000 compounds went through this assay and about 5,500 (1.4%) were called active. Inconclusive means that the source gave no clear call. Such entries were picked first, then a sample of the others. Calls follow the shape of the dose curve; as a rule, active = well fitted cell-killing curve with a large enough effect; inconclusive = small, poorly fitted or top-dose-only effect, or effect the other way; inactive = flat fitted curve, though single readings scatter. A potency beside an inconclusive call is a rough fit, not a confirmed value.
Test: qHTS assay for MDR1-selective chemotherapeutics: Primary screen using the parental adenocarcinoma cell KB-3-1; also: nearly all actives have a fitted effect of over 60% in size
Conditions: KB-3-1 viability, CellTiter-Glo ATP luminescence, 72 h; activity change, negative = cytotoxic: at 46.1 µM (top of the series)
Method in brief: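 Screening of KB-3-1 cells (DMEM, 10% FBS, phenol-red free) ran from lowest to highest compound concentration; after 72 h at 37 °C viability was read luminescently and curves fitted.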
% is scaled to controls: 0 for no effect and ±100 for the full control effect; potency is read from the fitted curve at half-maximal effect.

Row | SMILES | Potency | activity change, negative = cytotoxic
1 | N#C/C(=C\c1c(N2CCC(C(N)=O)CC2)nc2ccccn2c1=O)C(=O)NCc1ccco1 | inconclusive: 29.1 µM [rising, single point] | 
2 | Cc1ccc(C)c(Sc2ccc(NC(=O)CCl)cc2)c1 | active: 20.6 µM | 
3 | O=C(/C=C/c1c[nH]c2ccccc12)c1cccc2ccccc12 | inconclusive: 25.9 µM [cytotoxic, single point] | 
4 | CC(=O)NS(=O)(=O)c1ccc(N=c2ssc3c2-c2ccc(C)cc2NC3(C)C)cc1 | inconclusive: 25.9 µM [rising, single point] | 
5 | CCCn1c(N)c(CC)c(=O)[nH]c1=O | inactive | 
6 | Cc1ccccc1CN1C2=NCCN2c2ccccc21 | inconclusive: 23.1 µM [cytotoxic, single point] | 
7 | Cc1nc2ncnn2c(C)c1Cc1ccc(Cl)cc1F |  | inconclusive: -1.18%
8 | Nc1ccccc1SCC(=O)Nc1nc(-c2ccccc2)cs1 | active: 4.11 µM | 
9 | N#CCCN(Cc1ccccc1)C(c1ccnc2ccccc12)c1nnnn1-c1ccc2c(c1)OCCO2 (stereo unspecified) | inactive | 
10 | COC(=O)c1ccc2nc(-c3ccccc3)c(Cc3ccc(OC)cc3C)n2c1 | inconclusive: 20.6 µM [cytotoxic, single point] | 
11 | COc1ccc(Cl)cc1C(Nc1cccnc1)c1ccc2cccnc2c1O (stereo unspecified) | inconclusive: 20.6 µM [cytotoxic, single point] | 
12 | COc1ccc(CNC[C@H]2O[C@@H](n3ccc(=O)[nH]c3=O)[C@H](O)[C@@H]2O)cc1 | inactive | 
13 | COC1=CC(=O)CC(C)C12Oc1c(Cl)c(OC)cc(OC)c1C2=O (stereo unspecified) | inconclusive: 18.4 µM [cytotoxic, single point] | 
14 | O=C(Cc1ccc(S(=O)(=O)N2CCOCC2)s1)N(Cc1ccccc1)c1ccccc1 | inconclusive: 29.1 µM [cytotoxic, single point] | 
15 | N#Cc1ccccc1NS(=O)(=O)c1ccc(N2CCCCS2(=O)=O)cc1 | inactive | 
16 | Clc1cccc(-c2ccc3nccn3c2)c1Cl | inactive | 
17 | O=C(NCCc1ccccc1)C(=O)NCC1CCCN1S(=O)(=O)c1ccccc1 (stereo unspecified) | inconclusive: 20.6 µM [cytotoxic, single point] | 
18 | Cc1cc2oc(=O)cc(Cn3ncc(Cl)c(Cl)c3=O)c2cc1Cl | active: 13 µM | 
19 | CCCCOc1ccc(-c2csc(N)n2)cc1[N+](=O)[O-] | inconclusive: 18.4 µM [cytotoxic, single point] | 
20 | c1ccc(C[n+]2c(-c3ccccc3)csc2Nc2ccccc2)cc1 | active: 20.6 µM | 
21 | CCc1nn2cc(C(=O)c3cc(C)ccc3O)cnc2c1-c1ccc(F)cc1 | inactive | 

Reference: PubChem BioAssay AID1347075 (National Center for Advancing Translational Sciences (NCATS), 2019)
